Assay results

Source: PubChem BioAssay AID504749 (NCATS, 2011).

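Malaria parasite (P. falciparum) lines kept in red blood cells; parasite DNA is measured by SYBR Green fluorescence after lysis, 72 h after compound addition.
Each compound was titrated across a series from about 0.000037 to 29 µM.
The number is the fitted AC50, the concentration giving a half-maximal change in signal; a lower value means higher potency, whether the curve shows a decrease or an increase.
Calls follow the curve class and fit quality: every row here is inconclusive, covering signal-raising curves and weak, poorly fitted, partial or highest-dose-only inhibition curves.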

Values are in µM.
All entries here are filed as inconclusive.
Only part of the assay is shown, chiefly results filed as inconclusive.
A potency from a partial, single-point or poor curve is only a rough figure.

{"smiles": "CNC(=O)c1cc(Oc2ccc(NC(=O)Nc3ccc(Cl)c(C(F)(F)F)c3)cc2)ccn1", "setting": "CP265", "Potency (µM)": "8.912", "remark": "inhibitor, single point"}
{"smiles": "CNC(=O)c1cc(Oc2ccc(NC(=O)Nc3ccc(Cl)c(C(F)(F)F)c3)cc2)ccn1", "setting": "C2A", "Potency (µM)": "10", "remark": "inhibitor, single point"}
{"smiles": "CNC(=O)c1cc(Oc2ccc(NC(=O)Nc3ccc(Cl)c(C(F)(F)F)c3)cc2)ccn1", "setting": "Dd2", "Potency (µM)": "12.59", "remark": "inhibitor, partial curve"}
{"smiles": "CNC(=O)c1cc(Oc2ccc(NC(=O)Nc3ccc(Cl)c(C(F)(F)F)c3)cc2)ccn1", "setting": "CP325", "Potency (µM)": "19.01", "remark": "inhibitor, single point"}
{"smiles": "CNC(=O)c1cc(Oc2ccc(NC(=O)Nc3ccc(Cl)c(C(F)(F)F)c3)cc2)ccn1", "setting": "CP191", "Potency (µM)": "11.22", "remark": "inhibitor, single point"}
{"smiles": "CNC(=O)c1cc(Oc2ccc(NC(=O)Nc3ccc(Cl)c(C(F)(F)F)c3)cc2)ccn1", "setting": "ATS95", "Potency (µM)": "14.13", "remark": "inhibitor, single point"}
{"smiles": "CNC(=O)c1cc(Oc2ccc(NC(=O)Nc3ccc(Cl)c(C(F)(F)F)c3)cc2)ccn1", "setting": "CP329", "Potency (µM)": "16.94", "remark": "inhibitor, single point"}
{"smiles": "CNC(=O)c1cc(Oc2ccc(NC(=O)Nc3ccc(Cl)c(C(F)(F)F)c3)cc2)ccn1", "setting": "CP266", "Potency (µM)": "0.9528", "remark": "inhibitor, partial curve, poor fit"}
{"smiles": "CNC(=O)c1cc(Oc2ccc(NC(=O)Nc3ccc(Cl)c(C(F)(F)F)c3)cc2)ccn1", "setting": "CP256", "Potency (µM)": "8.912", "remark": "inhibitor, single point"}
{"smiles": "CNC(=O)c1cc(Oc2ccc(NC(=O)Nc3ccc(Cl)c(C(F)(F)F)c3)cc2)ccn1", "setting": "CP262", "Potency (µM)": "12", "remark": "inhibitor, single point"}
{"smiles": "CNC(=O)c1cc(Oc2ccc(NC(=O)Nc3ccc(Cl)c(C(F)(F)F)c3)cc2)ccn1", "setting": "CP291", "Potency (µM)": "15.1", "remark": "inhibitor, single point"}
{"smiles": "CNC(=O)c1cc(Oc2ccc(NC(=O)Nc3ccc(Cl)c(C(F)(F)F)c3)cc2)ccn1", "setting": "CP305", "Potency (µM)": "19.01", "remark": "inhibitor, single point"}
{"smiles": "CNC(=O)c1cc(Oc2ccc(NC(=O)Nc3ccc(Cl)c(C(F)(F)F)c3)cc2)ccn1", "setting": "CP260", "Potency (µM)": "17.78", "remark": "inhibitor, single point"}
{"smiles": "CNC(=O)c1cc(Oc2ccc(NC(=O)Nc3ccc(Cl)c(C(F)(F)F)c3)cc2)ccn1", "setting": "DFO2036", "Potency (µM)": "17.78", "remark": "inhibitor, single point"}
{"smiles": "CNC(=O)c1cc(Oc2ccc(NC(=O)Nc3ccc(Cl)c(C(F)(F)F)c3)cc2)ccn1", "setting": "AA1029", "Potency (µM)": "15.85", "remark": "inhibitor, single point"}
{"smiles": "CNC(=O)c1cc(Oc2ccc(NC(=O)Nc3ccc(Cl)c(C(F)(F)F)c3)cc2)ccn1", "setting": "CP269", "Potency (µM)": "13.46", "remark": "inhibitor, partial curve"}
{"smiles": "CNC(=O)c1cc(Oc2ccc(NC(=O)Nc3ccc(Cl)c(C(F)(F)F)c3)cc2)ccn1", "setting": "CP315", "Potency (µM)": "19.01", "remark": "inhibitor, single point"}
{"smiles": "COc1nc(N)nc2c1ncn2[C@@H]1O[C@H](CO)[C@@H](O)[C@@H]1O", "setting": "CP291", "Potency (µM)": "9.528", "remark": "inhibitor, partial curve, poor fit"}
{"smiles": "COc1nc(N)nc2c1ncn2[C@@H]1O[C@H](CO)[C@@H](O)[C@@H]1O", "setting": "CP297", "Potency (µM)": "21.33", "remark": "inhibitor, single point"}
{"smiles": "O=C(O)c1cc(O)c2c(c1)[C@H]([C@H]1c3cc(C(=O)O)cc(O)c3C(=O)c3c(O[C@@H]4OC(CO)C(O)C(O)C4O)cccc31)c1cccc(O[C@@H]3OC(CO)C(O)C(O)C3O)c1C2=O", "stereo": "stereo partly specified", "setting": "CP194", "Potency (µM)": "16.94", "remark": "inhibitor, single point"}
{"smiles": "O=C(O)c1cc(O)c2c(c1)[C@H]([C@H]1c3cc(C(=O)O)cc(O)c3C(=O)c3c(O[C@@H]4OC(CO)C(O)C(O)C4O)cccc31)c1cccc(O[C@@H]3OC(CO)C(O)C(O)C3O)c1C2=O", "stereo": "stereo partly specified", "setting": "CP305", "Potency (µM)": "16.94", "remark": "inhibitor, single point"}

The last 2 entries again:

* O=C(O)c1cc(O)c2c(c1)[C@H]([C@H]1c3cc(C(=O)O)cc(O)c3C(=O)c3c(O[C@@H]4OC(CO)C(O)C(O)C4O)cccc31)c1cccc(O[C@@H]3OC(CO)C(O)C(O)C3O)c1C2=O (stereo partly specified) [CP194] | Potency 16.94 µM (inhibitor, single point)
* O=C(O)c1cc(O)c2c(c1)[C@H]([C@H]1c3cc(C(=O)O)cc(O)c3C(=O)c3c(O[C@@H]4OC(CO)C(O)C(O)C4O)cccc31)c1cccc(O[C@@H]3OC(CO)C(O)C(O)C3O)c1C2=O (stereo partly specified) [CP305] | Potency 16.94 µM (inhibitor, single point)